Laboratory results published in EP0233461B2, “4,5,6-Substituted-2-pyrimidinamines” (AMERICAN CYANAMID COMPANY, priority 1986, dated 1987).
Where “and” joins values, the source holds several entries; their conditions need not be identical. Equal values may be shown once. The name of at least one read-out is uncertain.

Test system: Obese mice [C57 BI/6J (ob/ob)] and diabetic mice [C57 BI/Ks (db/db)]
Test: Hypoglycemic activity: plasma/blood glucose in obese (ob/ob) and diabetic (db/db) mice fed test compound in chow
Format: in vivo
[1] = ob/ob mice, dose 0.1 % (W/W) in chow, day 0 (before first treatment)
[2] = ob/ob mice, dose 0.1 % (W/W) in chow, day 5
[3] = ob/ob mice, dose 0.025 % (W/W) in chow, day 0 (before first treatment)
[4] = ob/ob mice, dose 0.025 % (W/W) in chow, day 7
[5] = ob/ob mice, dose 0.025 % (W/W) in chow, day 14
[6] = ob/ob mice, dose 0.1 % (W/W) in chow, day 7
[7] = ob/ob mice, dose 0.1 % (W/W) in chow, day 14

| SMILES | Blood Glucose Levels in mg/100ml [1] | Blood Glucose Levels in mg/100ml [2] | further results |
| --- | --- | --- | --- |
| Clc1ccc(Nc2nccc(-c3cccs3)n2)cc1 [listing 1 of 2 here] | 212 mg/100ml | 160 mg/100ml |  |
| c1cc(-c2ccnc(Nc3ccc(-n4ccnc4)cc3)n2)ccn1 [listing 1 of 2 here] |  |  | Blood Glucose Levels in mg/100ml (db/db mice, dose 0.1 % (W/W) in chow, day 0 (before first treatment)): 424 mg/100ml; Blood Glucose Levels in mg/100ml (db/db mice, dose 0.1 % (W/W) in chow, day 7): 397 mg/100ml; Blood Glucose Levels in mg/100ml (db/db mice, dose 0.1 % (W/W) in chow, day 14): 233 mg/100ml |
| CN1CCN(c2ccc(Nc3nccc(-c4cccnc4)n3)cc2)CC1 | 212 mg/100ml | 236 mg/100ml |  |
| CCN(CC)CCOc1ccc(Nc2nccc(-c3cccnc3)n2)cc1 | 220 mg/100ml | 191 mg/100ml |  |
| CCN(CC)c1ccc(Nc2nccc(-c3cccnc3)n2)cc1 | 223 mg/100ml | 138 mg/100ml |  |
| Clc1ccc(Nc2nccc(-c3cccs3)n2)cc1 [listing 2 of 2 here] |  |  | Blood Glucose Levels in mg/100ml [3]: 220 mg/100ml; Blood Glucose Levels in mg/100ml [4]: 148 mg/100ml; Blood Glucose Levels in mg/100ml [5]: 134 mg/100ml |
| c1cc(-c2ccnc(Nc3ccc(-n4ccnc4)cc3)n2)ccn1 [listing 2 of 2 here] | 219 mg/100ml and 211 mg/100ml and 222 mg/100ml | 128 mg/100ml | Blood Glucose Levels in mg/100ml (ob/ob mice, dose 0.01 % (W/W) in chow, day 0 (before first treatment)): 219 mg/100ml; Blood Glucose Levels in mg/100ml (ob/ob mice, dose 0.01 % (W/W) in chow, day 7): 158 mg/100ml; Blood Glucose Levels in mg/100ml (ob/ob mice, dose 0.01 % (W/W) in chow, day 14): 159 mg/100ml; Blood Glucose Levels in mg/100ml [3]: 210 mg/100ml and 222 mg/100ml; Blood Glucose Levels in mg/100ml [4]: 200 mg/100ml and 157 mg/100ml; Blood Glucose Levels in mg/100ml [5]: 148 mg/100ml and 175 mg/100ml; Blood Glucose Levels in mg/100ml [6]: 105 mg/100ml and 119 mg/100ml; Blood Glucose Levels in mg/100ml [7]: 140 mg/100ml and 132 mg/100ml |
| COc1cccc(Nc2nccc(-c3ccco3)n2)c1 [4-(2-Furanyl)-N-(3-methoxyphenyl) -2-pyrimidinamine] [listing 1 of 2 here] | 221 mg/100ml | 132 mg/100ml |  |
| COc1cccc(Nc2nccc(-c3ccco3)n2)c1 [4-(2-Furanyl)-N-(3-methoxyphenyl) -2-pyrimidinamine] [listing 2 of 2 here] | 239 mg/100ml and 217 mg/100ml and 219 mg/100ml | 113 mg/100ml and 162 mg/100ml and 209 mg/100ml |  |
| c1coc(-c2ccnc(Nc3ccc(-n4ccnc4)cc3)n2)c1 [4-(2-Furanyl)-N-[4-(1H-imidazol-1-yl) phenyl]-2-pyrimidin-am] [4-(2-Furanyl)-N-[4-(1H-imidazol-1-yl)phenyl]-2-pyrimidin-amine] | 214 mg/100ml and 227 mg/100ml | 137 mg/100ml | Blood Glucose Levels in mg/100ml [3]: 215 mg/100ml; Blood Glucose Levels in mg/100ml [4]: 164 mg/100ml; Blood Glucose Levels in mg/100ml [5]: 244 mg/100ml; Blood Glucose Levels in mg/100ml [6]: 140 mg/100ml; Blood Glucose Levels in mg/100ml [7]: 160 mg/100ml |
| CN1CCN(c2ccc(Nc3nccc(-c4ccco4)n3)cc2)CC1 [4-(2-Furanyl)-N-[4-(4-methyl-1-piper-azinyl)phenyl]-2-pyrimi] [listing 1 of 2 here] | 203 mg/100ml | 149 mg/100ml |  |
| CN1CCN(c2ccc(Nc3nccc(-c4ccco4)n3)cc2)CC1 [4-(2-Furanyl)-N-[4-(4-methyl-1-piper-azinyl)phenyl]-2-pyrimi] [listing 2 of 2 here] | 229 mg/100ml |  | Blood Glucose Levels in mg/100ml [3]: 210 mg/100ml; Blood Glucose Levels in mg/100ml [4]: 179 mg/100ml; Blood Glucose Levels in mg/100ml [5]: 130 mg/100ml; Blood Glucose Levels in mg/100ml [6]: 163 mg/100ml; Blood Glucose Levels in mg/100ml [7]: 141 mg/100ml |
| c1ccc(Nc2nccc(-c3ccco3)n2)cc1 [4-(2-Furanyl)-N-phenyl-2-pyrimidinamine] | 214 mg/100ml | 166 mg/100ml |  |
| NS(=O)(=O)c1ccc(Nc2nccc(-c3cccnc3)n2)cc1 [4-[[4-(3-Pyridinyl)-2-pyrimidinyl]amino] benzenesulfonamide] [listing 1 of 2 here] | 219 mg/100ml | 122 mg/100ml |  |
| NS(=O)(=O)c1ccc(Nc2nccc(-c3cccnc3)n2)cc1 [4-[[4-(3-Pyridinyl)-2-pyrimidinyl]amino] benzenesulfonamide] [listing 2 of 2 here] | 240 mg/100ml and 216 mg/100ml and 229 mg/100ml and 228 mg/100ml | 147 mg/100ml and 185 mg/100ml and 142 mg/100ml and 211 mg/100ml |  |
| CN(C)c1ccc(Nc2nccc(-c3cc4ccccc4o3)n2)cc1 [N'-[4-(2-Benzofurnayl)-2-pyrimidinyl)-N,N-dimethyl-1,4-benze] [listing 1 of 2 here] | 229 mg/100ml | 153 mg/100ml |  |
| CN(C)c1ccc(Nc2nccc(-c3cc4ccccc4o3)n2)cc1 [N'-[4-(2-Benzofurnayl)-2-pyrimidinyl)-N,N-dimethyl-1,4-benze] [listing 2 of 2 here] | 202 mg/100ml and 223 mg/100ml | 147 mg/100ml and 144 mg/100ml |  |
| Clc1cccc(Nc2nccc(-c3ccncc3)n2)c1 [N-(3-Chlorophenyl)-4 -(4-pyrindinyl)-2-pyrimidinamine] [listing 1 of 2 here] | 220 mg/100ml | 127 mg/100ml |  |
| Clc1cccc(Nc2nccc(-c3ccncc3)n2)c1 [N-(3-Chlorophenyl)-4 -(4-pyrindinyl)-2-pyrimidinamine] [listing 2 of 2 here] | 216 mg/100ml and 205 mg/100ml and 212 mg/100ml and 237 mg/100ml | 135 mg/100ml and 157 mg/100ml and 163 mg/100ml | Blood Glucose Levels in mg/100ml [3]: 210 mg/100ml; Blood Glucose Levels in mg/100ml [4]: 157 mg/100ml; Blood Glucose Levels in mg/100ml [5]: 135 mg/100ml; Blood Glucose Levels in mg/100ml [6]: 173 mg/100ml; Blood Glucose Levels in mg/100ml [7]: 129 mg/100ml |
| Clc1cccc(Nc2nccc(-c3ccccn3)n2)c1 [N-(3-Chlorophenyl)-4-(2-pyridinyl)-2-pyrimidinamine] | 207 mg/100ml | 204 mg/100ml |  |
| Clc1cccc(Nc2nccc(-c3cccnc3)n2)c1 [N-(3-Chlorophenyl)-4-(3-pyridinyl)-2-pyrimidinamine] | 205 mg/100ml and 244 mg/100ml | 135 mg/100ml | Blood Glucose Levels in mg/100ml [3]: 221 mg/100ml; Blood Glucose Levels in mg/100ml [4]: 205 mg/100ml; Blood Glucose Levels in mg/100ml [5]: 131 mg/100ml; Blood Glucose Levels in mg/100ml [6]: 211 mg/100ml; Blood Glucose Levels in mg/100ml [7]: 138 mg/100ml |
| Cc1ccc(Nc2nccc(-c3ccncc3)n2)cc1 [N-(4-Methylphenyl)-4-(4-pyridinyl)-2-pyrimidinamine] | 219 mg/100ml and 210 mg/100ml | 137 mg/100ml | Blood Glucose Levels in mg/100ml [3]: 209 mg/100ml; Blood Glucose Levels in mg/100ml [4]: 223 mg/100ml; Blood Glucose Levels in mg/100ml [5]: 166 mg/100ml; Blood Glucose Levels in mg/100ml [6]: 118 mg/100ml; Blood Glucose Levels in mg/100ml [7]: 80 mg/100ml |
| CCc1ccc(Nc2nccc(-c3ccncc3)n2)cc1 [N-(4-ethylphenyl) -4-(4-pyridinyl)-2-pyrimidinamine] [listing 1 of 2 here] | 216 mg/100ml | 181 mg/100ml |  |
| CCc1ccc(Nc2nccc(-c3ccncc3)n2)cc1 [N-(4-ethylphenyl) -4-(4-pyridinyl)-2-pyrimidinamine] [listing 2 of 2 here] | 223 mg/100ml | 164 mg/100ml |  |
| CC(C)N(CCOc1ccccc1Nc1nccc(-c2cccnc2)n1)C(C)C [N-[2-[2-[Bis(1-methyl-ethyl)amino]ethoxy]phenyl]-4-(3-pyridinyl)-2-pyrimid-inamine] | 228 mg/100ml | 153 mg/100ml |  |
| c1cncc(-c2ccnc(Nc3cccc(-n4ccnc4)c3)n2)c1 [N-[3-(1H-Imidazol-1-yl)phenyl]-4-(3-pyridinyl)-2-pyrimidinamine] | 225 mg/100ml | 173 mg/100ml |  |
